Common to all, as to assay: log2 fold change, soluble protein after heating vs DMSO (PISA); higher = thermal stabilisation; K562 lysate, 10 uM; active = over 0.2 and 3.5 SD of the protein, either way, in both replicates (recomputed)
Compound in test [1]: Cc1sc2c(c1C)C(c1ccc(Cl)cc1)=N[C@@H](CC(=O)OC(C)(C)C)c1nnc(C)n1-2
Summed up:
(§1)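 Quantification was by TMTpro 16plex LC-MS/MS with equalised channel sums, applied to the supernatant after 21,000xg for 90 min. Samples were crude K562 extract at 1 mg/mL protein in PBS pH 7.4 with 1 mM MgCl2, treated with 10 μM compound for 30 min, heated for 3 min across 48°C-58°C, pooled and brought to 0.5% NP-40 at 4°C. Values are log-two fold changes in thermal stability relative to solvent controls, from duplicates.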

The chains behind the UniProt entries cited, without tags or fusion partners. Where a name states a change or a piece, a line headed by the entry shows the natural chain unless it says otherwise.
UniProt Q9NSA3: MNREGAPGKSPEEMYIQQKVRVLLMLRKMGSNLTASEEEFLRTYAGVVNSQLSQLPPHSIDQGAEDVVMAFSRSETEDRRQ
UniProt O75575: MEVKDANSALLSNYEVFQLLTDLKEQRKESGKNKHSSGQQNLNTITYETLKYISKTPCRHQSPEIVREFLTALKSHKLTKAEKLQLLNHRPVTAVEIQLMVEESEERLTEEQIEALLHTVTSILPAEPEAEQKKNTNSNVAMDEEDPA
UniProt Q96RY5: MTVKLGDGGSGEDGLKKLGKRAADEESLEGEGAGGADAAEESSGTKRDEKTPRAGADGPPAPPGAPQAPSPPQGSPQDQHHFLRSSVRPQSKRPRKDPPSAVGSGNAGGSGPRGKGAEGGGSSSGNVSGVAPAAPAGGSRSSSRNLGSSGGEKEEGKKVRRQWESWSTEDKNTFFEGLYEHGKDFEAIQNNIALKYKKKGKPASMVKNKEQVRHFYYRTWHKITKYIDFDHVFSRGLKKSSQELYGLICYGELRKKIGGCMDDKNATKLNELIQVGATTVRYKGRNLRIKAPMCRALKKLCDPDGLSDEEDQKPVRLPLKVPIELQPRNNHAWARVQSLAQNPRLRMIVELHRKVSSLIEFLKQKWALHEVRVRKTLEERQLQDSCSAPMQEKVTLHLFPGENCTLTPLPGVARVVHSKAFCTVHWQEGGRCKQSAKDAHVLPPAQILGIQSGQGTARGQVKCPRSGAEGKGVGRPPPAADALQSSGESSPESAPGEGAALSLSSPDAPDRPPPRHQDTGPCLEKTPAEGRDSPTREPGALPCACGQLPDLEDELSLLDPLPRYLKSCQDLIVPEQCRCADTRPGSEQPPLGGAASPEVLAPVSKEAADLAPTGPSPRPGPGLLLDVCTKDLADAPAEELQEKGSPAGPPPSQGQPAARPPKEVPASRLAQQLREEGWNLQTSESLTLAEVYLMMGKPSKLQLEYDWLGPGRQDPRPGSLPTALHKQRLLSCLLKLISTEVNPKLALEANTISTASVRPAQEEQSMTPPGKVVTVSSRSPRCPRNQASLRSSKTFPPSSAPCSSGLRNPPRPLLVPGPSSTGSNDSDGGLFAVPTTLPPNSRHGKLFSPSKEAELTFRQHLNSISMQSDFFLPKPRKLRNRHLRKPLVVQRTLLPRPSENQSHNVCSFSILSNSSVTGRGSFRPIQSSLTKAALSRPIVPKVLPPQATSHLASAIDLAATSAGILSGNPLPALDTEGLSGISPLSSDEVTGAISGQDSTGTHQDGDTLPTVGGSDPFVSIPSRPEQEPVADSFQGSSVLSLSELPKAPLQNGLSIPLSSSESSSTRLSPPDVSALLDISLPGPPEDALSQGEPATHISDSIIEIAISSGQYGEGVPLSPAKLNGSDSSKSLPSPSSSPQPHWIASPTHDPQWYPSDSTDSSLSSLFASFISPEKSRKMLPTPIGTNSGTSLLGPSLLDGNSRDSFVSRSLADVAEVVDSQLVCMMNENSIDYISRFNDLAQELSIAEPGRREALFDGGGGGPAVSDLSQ
UniProt Q9UKG9: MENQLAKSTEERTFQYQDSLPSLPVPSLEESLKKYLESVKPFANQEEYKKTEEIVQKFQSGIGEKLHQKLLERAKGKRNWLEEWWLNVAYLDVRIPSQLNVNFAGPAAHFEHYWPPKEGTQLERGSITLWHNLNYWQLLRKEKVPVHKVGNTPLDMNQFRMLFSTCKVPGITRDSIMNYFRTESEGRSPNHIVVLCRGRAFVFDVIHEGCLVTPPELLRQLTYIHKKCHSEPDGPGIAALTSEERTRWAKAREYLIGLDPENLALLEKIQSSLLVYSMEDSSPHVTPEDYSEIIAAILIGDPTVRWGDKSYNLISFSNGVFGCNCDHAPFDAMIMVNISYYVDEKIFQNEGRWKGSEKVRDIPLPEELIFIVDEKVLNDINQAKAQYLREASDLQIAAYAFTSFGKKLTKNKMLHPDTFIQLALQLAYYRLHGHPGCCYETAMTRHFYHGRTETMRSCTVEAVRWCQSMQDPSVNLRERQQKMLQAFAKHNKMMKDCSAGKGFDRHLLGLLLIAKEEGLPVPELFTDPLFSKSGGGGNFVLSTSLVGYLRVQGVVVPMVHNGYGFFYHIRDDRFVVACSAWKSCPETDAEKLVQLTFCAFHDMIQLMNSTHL
UniProt P52943: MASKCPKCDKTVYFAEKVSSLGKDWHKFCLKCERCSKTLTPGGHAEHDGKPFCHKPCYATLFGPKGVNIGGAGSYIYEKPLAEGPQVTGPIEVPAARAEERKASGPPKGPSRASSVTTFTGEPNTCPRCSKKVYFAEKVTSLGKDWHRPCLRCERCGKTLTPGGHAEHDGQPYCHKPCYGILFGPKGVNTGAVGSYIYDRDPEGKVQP
UniProt H7BZ55: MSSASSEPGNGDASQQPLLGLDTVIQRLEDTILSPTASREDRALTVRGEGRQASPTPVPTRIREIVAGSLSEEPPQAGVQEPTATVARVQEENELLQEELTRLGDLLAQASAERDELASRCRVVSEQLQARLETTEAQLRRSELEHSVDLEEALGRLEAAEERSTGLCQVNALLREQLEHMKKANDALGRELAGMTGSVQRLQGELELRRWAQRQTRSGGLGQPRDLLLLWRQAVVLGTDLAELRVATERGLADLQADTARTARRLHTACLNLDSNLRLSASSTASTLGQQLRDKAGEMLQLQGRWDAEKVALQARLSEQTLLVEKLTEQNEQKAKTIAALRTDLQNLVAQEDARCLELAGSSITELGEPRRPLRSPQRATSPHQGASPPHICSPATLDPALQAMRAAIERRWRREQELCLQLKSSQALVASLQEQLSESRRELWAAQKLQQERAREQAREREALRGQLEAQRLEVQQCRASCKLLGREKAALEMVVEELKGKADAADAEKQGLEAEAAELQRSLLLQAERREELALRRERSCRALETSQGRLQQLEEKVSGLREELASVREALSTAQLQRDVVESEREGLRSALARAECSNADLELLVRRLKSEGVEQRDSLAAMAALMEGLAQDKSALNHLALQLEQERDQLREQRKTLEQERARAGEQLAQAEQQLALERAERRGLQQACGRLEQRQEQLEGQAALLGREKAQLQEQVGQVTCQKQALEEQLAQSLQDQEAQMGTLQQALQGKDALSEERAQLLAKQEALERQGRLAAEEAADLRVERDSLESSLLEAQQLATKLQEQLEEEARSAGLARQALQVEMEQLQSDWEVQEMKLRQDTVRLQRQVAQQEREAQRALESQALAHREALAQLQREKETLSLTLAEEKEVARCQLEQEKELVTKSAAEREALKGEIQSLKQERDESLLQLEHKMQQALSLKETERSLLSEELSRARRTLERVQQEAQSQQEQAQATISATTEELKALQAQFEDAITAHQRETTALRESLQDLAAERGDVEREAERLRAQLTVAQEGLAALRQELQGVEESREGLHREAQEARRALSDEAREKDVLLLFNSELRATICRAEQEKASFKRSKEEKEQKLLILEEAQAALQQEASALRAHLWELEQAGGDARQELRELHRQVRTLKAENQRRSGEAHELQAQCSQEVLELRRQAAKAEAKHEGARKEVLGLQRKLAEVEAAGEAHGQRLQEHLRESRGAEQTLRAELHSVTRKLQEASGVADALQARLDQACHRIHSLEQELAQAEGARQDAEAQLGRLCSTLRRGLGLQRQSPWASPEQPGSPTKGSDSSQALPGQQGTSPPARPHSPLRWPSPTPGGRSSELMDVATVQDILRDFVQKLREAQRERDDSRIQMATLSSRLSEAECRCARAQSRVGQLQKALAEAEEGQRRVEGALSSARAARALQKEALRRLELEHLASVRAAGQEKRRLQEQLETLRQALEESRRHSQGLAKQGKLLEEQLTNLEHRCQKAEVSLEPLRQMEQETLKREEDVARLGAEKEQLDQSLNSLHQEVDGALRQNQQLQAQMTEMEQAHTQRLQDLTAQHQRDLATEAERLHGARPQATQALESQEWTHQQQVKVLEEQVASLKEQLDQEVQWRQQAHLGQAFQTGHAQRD
UniProt P25774, whole entry, looked up: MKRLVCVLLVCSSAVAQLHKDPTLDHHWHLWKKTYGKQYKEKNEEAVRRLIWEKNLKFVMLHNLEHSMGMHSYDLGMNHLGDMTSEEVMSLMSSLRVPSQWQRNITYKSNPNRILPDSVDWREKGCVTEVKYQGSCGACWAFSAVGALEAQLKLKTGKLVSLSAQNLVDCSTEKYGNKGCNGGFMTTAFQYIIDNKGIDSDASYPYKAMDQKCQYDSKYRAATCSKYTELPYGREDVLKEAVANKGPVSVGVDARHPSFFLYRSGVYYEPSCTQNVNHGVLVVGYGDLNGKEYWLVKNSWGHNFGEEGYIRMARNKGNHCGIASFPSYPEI

Compound in test [2]: C1=CC=C(C=C1)[C@H](COC2=CC3=C(C=C2)NC(=O)N3)NC(=O)C4=CC=CN(C4=O)CC5=CC(=C(C=C5)F)F
Summed up: as §1

Compound in test [3]: CC1=C(SC2=C1C(=N[C@H](C3=NN=C(N32)C)CC(=O)N)C4=CC=C(C=C4)Cl)C
Summed up:
as §1

Compound in test [4]: CC1=C2C(=CC=C1)N=C(N(C2=O)C3=CC=CC=C3C)CN4C=NC5=C(N=CN=C54)N
The method, boiled down:
as §1

Compound in test [5]: c1ccc([C@@H]2C[C@H]2NC2CCNCC2)cc1
The method, boiled down: as §1

The other results are listed elsewhere or left out.

Take CTNNBIP1 (UniProt Q9NSA3): in test [1], the log2 fold change is inactive: 0.072.

On to CRCP (UniProt O75575), for which the log2 fold change is inactive: 0.052 in test [2], inactive: 0.006 in test [3], inactive: 0.052 in test [4] and inactive: -0.037 in test [5].

With CRAMP1 (UniProt Q96RY5), the log2 fold change in test [4] was inactive: -0.194; in test [1] it was inactive: -0.048.

With CROT isoform 3 (UniProt Q9UKG9), the log2 fold change in test [5] is inactive: 0.043.

For the target CRIP2 isoform 2 (UniProt P52943), the log2 fold change is inactive: 0 in test [2], inactive: 0.052 in test [3], inactive: -0.177 in test [1] and inactive: -0.084 in test [5].

For the target CROCC2 (UniProt H7BZ55), the log2 fold change was inactive: -0.027 in test [2], inactive: -0.118 in test [3] and inactive: 0.015 in test [1].

On to CTSS (UniProt P25774), for which the log2 fold change was inactive: 0.058 in test [1] and inactive: -0.006 in test [5].

The values above are taken from the supplement of paper PMC10849652.
